Experimental data from patent US4505908A, “7-Bromo-5-(2-halophenyl)-1H-2,3-dihydro-1,4-benzodiazepine pharmaceuticals” (priority 1981, dated 1985).

Experiment: Acute Toxicity (7-day, single application per os)
Details: in vivo, po, single application p.o., NMRI mouse on an empty stomach
Procedure: The acute 7-day toxicity is determined after a single application per os on the white NMRI mouse, on an empty stomach, and the LD50 values are calculated by means of electronic data processing through a probit analysis.

## CN1C(=O)CN=C(c2ccccc2)c2cc(Cl)ccc21 [Diazepam, diazepam]
  LD50 at 168 h: 850 mg/kg
